Reference: patent US20060122153A1, “Antineoplastic ether lipid compounds with modifications at the sn-2 carbon” (priority 2003, published 2006)
At least one structure is not confirmed: it was looked up by name or label, or the drawing left a doubt.

Tested on: platelets in dog whole blood
Assay: Platelet aggregation in whole blood (Chronolog whole blood aggregometer)
Design: key to the marks not given beside the values
Settings: overall grade (+++ / −), key not given

**Q.** Which Platelet aggregation does the source give for `CCCCCCCCCCCCCCCCCCOC[C@@H](N)COP(=O)([O-])OCC[N+](C)(C)C` [9(R)] here?
**A.** Its Platelet aggregation is “+++”.
